The values below come from paper PMC12669629.

Amino acid sequences for entries named in this document (tags omitted). A change or cut given only in a name is not applied to a line headed by its entry. Residues count along the entry.
UniProt O95359: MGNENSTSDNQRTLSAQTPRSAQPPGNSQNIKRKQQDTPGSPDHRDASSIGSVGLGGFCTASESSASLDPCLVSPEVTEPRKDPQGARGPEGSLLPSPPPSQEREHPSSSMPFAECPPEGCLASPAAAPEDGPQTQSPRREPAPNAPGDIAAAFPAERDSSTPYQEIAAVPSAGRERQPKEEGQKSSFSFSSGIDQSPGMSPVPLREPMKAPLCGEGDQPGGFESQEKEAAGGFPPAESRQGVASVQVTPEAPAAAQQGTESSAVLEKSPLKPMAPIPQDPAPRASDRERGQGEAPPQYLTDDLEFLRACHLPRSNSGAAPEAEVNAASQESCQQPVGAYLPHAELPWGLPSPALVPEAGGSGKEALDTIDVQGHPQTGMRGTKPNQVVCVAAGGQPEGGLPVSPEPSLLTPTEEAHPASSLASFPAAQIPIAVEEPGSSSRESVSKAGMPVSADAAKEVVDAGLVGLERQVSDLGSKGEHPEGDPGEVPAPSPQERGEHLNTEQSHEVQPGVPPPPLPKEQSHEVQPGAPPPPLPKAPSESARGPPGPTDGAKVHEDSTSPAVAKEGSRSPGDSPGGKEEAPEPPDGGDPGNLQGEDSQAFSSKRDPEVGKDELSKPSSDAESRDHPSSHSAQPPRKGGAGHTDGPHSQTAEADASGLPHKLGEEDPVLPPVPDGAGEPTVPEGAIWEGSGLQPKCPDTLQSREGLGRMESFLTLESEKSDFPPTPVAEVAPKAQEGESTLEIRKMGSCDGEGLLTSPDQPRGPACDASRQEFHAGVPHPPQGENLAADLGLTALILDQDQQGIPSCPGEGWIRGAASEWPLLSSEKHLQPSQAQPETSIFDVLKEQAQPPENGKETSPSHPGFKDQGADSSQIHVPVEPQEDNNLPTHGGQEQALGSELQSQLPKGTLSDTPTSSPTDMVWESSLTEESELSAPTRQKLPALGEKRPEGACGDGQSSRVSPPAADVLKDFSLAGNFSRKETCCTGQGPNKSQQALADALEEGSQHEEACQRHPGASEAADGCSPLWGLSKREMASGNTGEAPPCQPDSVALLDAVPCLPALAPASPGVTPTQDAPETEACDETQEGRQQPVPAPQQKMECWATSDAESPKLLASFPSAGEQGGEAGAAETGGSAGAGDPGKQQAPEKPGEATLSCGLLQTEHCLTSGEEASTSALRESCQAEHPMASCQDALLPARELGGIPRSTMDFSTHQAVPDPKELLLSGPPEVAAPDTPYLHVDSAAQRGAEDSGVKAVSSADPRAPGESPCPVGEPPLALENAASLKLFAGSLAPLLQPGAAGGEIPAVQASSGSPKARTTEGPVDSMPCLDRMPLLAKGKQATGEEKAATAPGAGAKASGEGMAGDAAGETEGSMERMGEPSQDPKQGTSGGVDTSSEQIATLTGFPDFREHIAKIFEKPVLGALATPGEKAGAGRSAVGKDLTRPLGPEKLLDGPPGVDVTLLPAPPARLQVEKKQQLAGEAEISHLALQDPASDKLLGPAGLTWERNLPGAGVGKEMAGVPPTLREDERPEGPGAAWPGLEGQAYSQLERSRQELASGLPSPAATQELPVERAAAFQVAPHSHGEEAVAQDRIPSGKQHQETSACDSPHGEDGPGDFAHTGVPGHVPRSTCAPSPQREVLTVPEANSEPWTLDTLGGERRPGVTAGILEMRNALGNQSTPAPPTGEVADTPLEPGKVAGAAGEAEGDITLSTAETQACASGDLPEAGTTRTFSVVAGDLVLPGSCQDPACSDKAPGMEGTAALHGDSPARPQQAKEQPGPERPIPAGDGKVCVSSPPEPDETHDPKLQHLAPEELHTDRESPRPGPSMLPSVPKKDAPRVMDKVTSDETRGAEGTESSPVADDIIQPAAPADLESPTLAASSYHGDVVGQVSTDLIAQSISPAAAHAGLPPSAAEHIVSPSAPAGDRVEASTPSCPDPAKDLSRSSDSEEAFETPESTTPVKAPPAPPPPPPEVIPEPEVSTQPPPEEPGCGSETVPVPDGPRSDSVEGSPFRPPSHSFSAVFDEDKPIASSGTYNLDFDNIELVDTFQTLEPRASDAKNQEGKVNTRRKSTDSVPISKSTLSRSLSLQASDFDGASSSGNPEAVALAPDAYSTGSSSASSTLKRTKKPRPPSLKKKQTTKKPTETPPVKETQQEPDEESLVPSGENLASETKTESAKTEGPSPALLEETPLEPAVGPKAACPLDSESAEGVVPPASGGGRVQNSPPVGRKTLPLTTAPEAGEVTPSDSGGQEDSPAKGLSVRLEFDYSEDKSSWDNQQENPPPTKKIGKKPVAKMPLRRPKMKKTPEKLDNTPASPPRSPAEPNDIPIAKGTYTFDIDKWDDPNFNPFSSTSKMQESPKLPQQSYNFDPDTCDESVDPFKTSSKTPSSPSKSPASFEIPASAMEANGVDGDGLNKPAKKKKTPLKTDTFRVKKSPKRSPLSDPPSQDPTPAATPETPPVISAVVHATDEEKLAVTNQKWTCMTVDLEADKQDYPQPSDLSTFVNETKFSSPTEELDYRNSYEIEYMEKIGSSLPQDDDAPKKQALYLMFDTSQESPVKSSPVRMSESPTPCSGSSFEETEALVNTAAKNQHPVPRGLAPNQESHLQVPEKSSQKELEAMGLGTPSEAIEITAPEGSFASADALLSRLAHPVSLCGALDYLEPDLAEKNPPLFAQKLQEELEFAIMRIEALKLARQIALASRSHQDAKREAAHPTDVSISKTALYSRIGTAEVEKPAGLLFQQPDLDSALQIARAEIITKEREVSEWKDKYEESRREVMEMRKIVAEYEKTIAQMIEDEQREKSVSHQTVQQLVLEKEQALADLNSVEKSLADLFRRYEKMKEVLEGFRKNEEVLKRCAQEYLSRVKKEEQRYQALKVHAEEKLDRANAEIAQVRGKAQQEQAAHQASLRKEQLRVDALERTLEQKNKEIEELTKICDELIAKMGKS
UniProt P29317, residues 24-976: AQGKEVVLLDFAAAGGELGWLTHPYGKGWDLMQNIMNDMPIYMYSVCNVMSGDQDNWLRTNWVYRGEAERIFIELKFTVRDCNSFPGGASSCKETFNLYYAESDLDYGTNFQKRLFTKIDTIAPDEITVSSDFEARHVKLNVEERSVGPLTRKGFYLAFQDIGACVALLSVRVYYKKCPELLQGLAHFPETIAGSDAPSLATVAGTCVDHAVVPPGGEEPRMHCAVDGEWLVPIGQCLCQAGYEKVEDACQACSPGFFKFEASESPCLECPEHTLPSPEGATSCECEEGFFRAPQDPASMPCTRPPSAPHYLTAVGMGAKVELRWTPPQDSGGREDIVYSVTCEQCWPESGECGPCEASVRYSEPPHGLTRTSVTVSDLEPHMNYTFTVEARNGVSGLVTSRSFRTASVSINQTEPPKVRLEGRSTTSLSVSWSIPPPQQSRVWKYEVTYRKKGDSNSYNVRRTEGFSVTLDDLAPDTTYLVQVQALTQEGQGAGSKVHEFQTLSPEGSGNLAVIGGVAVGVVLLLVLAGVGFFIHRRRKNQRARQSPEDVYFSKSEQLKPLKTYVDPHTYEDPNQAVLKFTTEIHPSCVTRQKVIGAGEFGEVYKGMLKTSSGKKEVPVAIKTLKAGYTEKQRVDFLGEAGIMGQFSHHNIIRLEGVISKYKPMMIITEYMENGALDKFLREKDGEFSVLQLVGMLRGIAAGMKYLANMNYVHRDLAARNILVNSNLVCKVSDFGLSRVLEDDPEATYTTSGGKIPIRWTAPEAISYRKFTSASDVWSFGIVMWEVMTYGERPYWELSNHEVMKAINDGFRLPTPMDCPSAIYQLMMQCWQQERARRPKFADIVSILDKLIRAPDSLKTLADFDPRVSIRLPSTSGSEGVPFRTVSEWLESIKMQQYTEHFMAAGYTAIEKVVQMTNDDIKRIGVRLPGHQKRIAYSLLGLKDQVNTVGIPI

No constants are given. Whether binding was seen depends on the method and setting. In cells and extracts the contact can be indirect. Some binding calls cover weakened binding; strength is not graded here.

The target in assay [1] is T1, N-terminal PH (PH1) domain (aa 7-112) of PLEKHA1 (human) (UniProt Q9HB21).
T1 sequence: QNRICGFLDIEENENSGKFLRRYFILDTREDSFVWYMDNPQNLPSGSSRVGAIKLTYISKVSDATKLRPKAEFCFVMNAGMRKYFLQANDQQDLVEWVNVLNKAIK
The experiment in a line: co-IP; co-IP of the PH1 domain of PLEKHA1 and EphA2 (Fig. S4A); cells and tags not shown.

Assay [2] deals with Flag-tagged TACC2 (transforming acidic coiled-coil protein 2) (human) (UniProt O95359). The experiment in a line: co-IP; KYSE30 cell lysates, immunoprecipitation with anti-Flag, immunoblot for endogenous EphA2; IP lysis buffer 50 mM Tris-HCl pH 7.4, 150 mM NaCl, 0.6% NP-40, 5 mM EDTA, overnight at 4 °C. In general terms: In western blotting, separated proteins are transferred to a membrane and probed.

In assay [3] the target is Flag-tagged PLEKHA1 (pleckstrin homology domain containing family A member 1) (human) (UniProt Q9HB21). Described as above.

Regarding “EphA2 as used in the co-IP with the PH1 domain (Fig. S4A) (from UniProt P29317 24-976) (receptor)”, the binding entry in assay [1] was “binds”.

With “endogenous EphA2 (from UniProt P29317 24-976) (receptor)”, the binding entry in assay [2] and in assay [3] was “no binding” in each case.
